± gives the standard deviation of the averaged measurements. The entries are a selection whose mix differs from that of the whole data set.
Compound: Nc1ncnc2c1ncn2[C@@H]1O[C@H](COP(=O)(O)OP(=O)(O)NP(=O)(O)O)[C@@H](O)[C@H]1O [adenylyl imidodiphosphate]
Test: NP40-soluble protein abundance relative to vehicle (solubility fold change) (ratio); higher = more soluble protein in presence of AMP-PNP
Procedure, shortened: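 In three independent experiments, Jurkat crude lysate made by Dounce homogenisation was treated for 10 min at room temperature and then 3 min at 37 °C with eight concentrations ranging from 0.1 to 10 mM. It was then solubilised with 0.8% NP40 plus benzonase for 60 min at 4 °C and ultracentrifuged. The supernatant was TMT-labelled for LC-MS/MS, and each value is the fold change against the detergent-processed vehicle for the same replicate, using vsn-normalised intensities.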

Amino acid sequences for entries named in this document (tags omitted). A change or cut given only in a name is not applied to a line headed by its entry.
UniProt Q7L8L6: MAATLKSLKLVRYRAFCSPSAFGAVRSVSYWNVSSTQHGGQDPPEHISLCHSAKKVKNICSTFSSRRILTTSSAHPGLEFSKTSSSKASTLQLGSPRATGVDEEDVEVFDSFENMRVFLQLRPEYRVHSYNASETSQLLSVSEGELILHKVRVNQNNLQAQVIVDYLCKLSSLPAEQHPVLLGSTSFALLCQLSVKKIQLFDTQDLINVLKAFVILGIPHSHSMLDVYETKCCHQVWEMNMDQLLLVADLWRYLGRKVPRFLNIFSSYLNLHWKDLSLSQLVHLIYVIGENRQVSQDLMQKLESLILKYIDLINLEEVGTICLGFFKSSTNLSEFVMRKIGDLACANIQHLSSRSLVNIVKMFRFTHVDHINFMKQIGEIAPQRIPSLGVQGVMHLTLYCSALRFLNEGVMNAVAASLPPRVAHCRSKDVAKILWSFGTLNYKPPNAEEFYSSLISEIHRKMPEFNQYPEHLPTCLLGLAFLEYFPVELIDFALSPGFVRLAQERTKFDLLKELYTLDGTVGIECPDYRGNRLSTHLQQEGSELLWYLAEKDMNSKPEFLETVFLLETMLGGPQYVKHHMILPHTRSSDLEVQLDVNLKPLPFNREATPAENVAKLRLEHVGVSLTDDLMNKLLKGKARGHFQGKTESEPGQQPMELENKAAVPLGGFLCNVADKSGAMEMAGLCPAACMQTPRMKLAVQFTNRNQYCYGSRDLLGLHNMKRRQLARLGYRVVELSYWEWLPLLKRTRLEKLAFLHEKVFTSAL
UniProt Q6MZP7: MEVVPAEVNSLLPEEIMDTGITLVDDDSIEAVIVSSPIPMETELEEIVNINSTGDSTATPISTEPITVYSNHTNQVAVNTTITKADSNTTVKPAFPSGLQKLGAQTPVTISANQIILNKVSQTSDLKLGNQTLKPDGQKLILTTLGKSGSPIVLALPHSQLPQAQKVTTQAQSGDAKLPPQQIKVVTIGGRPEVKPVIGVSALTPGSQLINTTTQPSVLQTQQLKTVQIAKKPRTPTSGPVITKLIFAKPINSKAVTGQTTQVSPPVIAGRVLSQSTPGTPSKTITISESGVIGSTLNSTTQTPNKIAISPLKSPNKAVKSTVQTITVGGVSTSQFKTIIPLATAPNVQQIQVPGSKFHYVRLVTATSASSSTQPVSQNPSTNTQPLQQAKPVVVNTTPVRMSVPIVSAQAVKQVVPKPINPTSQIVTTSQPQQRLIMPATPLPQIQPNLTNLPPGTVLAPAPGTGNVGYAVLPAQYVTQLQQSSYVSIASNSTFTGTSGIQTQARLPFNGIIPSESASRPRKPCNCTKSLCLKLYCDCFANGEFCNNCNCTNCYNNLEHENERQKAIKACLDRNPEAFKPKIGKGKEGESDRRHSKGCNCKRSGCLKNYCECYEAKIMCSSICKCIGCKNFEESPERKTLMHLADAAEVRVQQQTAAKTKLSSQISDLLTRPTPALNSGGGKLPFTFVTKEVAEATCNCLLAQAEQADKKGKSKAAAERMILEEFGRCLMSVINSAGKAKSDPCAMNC
UniProt Q7L5D6: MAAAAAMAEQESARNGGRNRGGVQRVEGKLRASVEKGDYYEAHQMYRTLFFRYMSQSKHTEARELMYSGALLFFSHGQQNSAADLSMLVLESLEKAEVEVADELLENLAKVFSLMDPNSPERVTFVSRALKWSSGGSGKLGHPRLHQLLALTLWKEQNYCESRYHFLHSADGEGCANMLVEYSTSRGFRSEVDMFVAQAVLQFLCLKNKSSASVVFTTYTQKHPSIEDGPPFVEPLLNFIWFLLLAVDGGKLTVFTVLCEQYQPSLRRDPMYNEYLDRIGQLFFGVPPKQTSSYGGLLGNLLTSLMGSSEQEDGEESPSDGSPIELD
UniProt Q6XQN6: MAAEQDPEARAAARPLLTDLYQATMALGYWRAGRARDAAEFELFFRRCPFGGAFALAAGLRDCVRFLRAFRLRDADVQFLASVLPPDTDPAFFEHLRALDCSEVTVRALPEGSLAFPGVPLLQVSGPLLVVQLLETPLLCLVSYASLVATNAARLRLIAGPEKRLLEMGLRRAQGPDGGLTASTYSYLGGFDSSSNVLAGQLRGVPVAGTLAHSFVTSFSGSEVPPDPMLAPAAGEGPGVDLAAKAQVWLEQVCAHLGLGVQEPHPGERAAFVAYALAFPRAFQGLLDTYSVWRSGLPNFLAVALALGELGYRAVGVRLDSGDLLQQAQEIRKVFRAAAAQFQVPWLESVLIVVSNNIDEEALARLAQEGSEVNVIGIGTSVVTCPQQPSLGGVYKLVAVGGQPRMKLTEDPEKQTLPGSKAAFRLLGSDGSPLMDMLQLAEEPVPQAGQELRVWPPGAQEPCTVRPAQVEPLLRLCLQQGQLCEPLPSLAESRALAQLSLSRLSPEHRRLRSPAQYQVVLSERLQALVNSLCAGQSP
UniProt Q69YI7: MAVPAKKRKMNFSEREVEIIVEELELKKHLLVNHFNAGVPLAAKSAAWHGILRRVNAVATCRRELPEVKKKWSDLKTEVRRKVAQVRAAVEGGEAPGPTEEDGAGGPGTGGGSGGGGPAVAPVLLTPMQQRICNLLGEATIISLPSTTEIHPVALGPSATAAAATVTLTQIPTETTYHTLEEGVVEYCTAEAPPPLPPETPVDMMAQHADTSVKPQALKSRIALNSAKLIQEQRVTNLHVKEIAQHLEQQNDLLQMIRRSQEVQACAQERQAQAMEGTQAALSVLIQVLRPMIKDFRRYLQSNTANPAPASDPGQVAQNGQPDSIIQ
UniProt Q6P3S6: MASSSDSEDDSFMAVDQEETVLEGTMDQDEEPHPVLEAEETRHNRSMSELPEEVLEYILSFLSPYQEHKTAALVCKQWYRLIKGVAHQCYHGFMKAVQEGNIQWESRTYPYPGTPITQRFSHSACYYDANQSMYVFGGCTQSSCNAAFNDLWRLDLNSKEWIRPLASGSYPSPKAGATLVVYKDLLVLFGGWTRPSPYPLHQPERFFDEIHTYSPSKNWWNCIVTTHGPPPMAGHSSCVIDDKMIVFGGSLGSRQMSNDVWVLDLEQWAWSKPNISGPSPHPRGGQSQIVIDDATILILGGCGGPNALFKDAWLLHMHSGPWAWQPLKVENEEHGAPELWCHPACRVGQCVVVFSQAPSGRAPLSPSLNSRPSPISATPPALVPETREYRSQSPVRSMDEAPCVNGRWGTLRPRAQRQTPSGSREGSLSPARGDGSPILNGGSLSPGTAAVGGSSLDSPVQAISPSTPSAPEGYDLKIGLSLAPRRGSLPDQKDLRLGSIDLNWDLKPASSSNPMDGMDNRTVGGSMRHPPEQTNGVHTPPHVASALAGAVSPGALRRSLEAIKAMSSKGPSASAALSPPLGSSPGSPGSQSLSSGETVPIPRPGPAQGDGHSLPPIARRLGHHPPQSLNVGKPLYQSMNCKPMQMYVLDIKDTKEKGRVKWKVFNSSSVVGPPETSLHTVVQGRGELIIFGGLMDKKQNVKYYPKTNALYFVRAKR
UniProt Q6DKJ4: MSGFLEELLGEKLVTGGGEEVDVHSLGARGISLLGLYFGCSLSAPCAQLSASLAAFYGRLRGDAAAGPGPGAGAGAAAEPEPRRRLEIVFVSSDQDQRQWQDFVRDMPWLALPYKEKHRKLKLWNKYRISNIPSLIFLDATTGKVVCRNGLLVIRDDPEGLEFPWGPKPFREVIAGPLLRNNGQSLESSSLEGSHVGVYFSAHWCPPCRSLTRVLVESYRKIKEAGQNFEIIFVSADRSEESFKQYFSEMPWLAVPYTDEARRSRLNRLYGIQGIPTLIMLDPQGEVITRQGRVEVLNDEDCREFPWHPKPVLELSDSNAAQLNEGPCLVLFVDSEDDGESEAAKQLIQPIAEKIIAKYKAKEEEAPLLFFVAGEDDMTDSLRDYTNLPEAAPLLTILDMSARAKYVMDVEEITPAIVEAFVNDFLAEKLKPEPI
UniProt Q6PI78: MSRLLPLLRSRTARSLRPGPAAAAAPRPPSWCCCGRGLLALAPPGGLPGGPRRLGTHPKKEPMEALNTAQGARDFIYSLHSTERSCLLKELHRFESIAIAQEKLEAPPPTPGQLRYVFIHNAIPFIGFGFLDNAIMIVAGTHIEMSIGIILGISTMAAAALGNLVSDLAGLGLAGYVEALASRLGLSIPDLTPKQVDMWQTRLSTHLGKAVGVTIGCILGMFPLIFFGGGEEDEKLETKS
UniProt Q6P6B1: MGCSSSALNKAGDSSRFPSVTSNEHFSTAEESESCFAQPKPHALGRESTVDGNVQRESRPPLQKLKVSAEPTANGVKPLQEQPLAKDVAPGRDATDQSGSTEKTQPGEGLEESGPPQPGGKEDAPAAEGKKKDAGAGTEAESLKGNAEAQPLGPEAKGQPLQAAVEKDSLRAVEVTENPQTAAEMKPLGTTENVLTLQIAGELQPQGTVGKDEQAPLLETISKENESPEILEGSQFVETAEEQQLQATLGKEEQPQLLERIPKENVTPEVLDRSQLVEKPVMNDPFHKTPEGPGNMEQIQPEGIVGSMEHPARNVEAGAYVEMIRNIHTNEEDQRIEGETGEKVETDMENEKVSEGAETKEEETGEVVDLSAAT
UniProt Q7L1V2: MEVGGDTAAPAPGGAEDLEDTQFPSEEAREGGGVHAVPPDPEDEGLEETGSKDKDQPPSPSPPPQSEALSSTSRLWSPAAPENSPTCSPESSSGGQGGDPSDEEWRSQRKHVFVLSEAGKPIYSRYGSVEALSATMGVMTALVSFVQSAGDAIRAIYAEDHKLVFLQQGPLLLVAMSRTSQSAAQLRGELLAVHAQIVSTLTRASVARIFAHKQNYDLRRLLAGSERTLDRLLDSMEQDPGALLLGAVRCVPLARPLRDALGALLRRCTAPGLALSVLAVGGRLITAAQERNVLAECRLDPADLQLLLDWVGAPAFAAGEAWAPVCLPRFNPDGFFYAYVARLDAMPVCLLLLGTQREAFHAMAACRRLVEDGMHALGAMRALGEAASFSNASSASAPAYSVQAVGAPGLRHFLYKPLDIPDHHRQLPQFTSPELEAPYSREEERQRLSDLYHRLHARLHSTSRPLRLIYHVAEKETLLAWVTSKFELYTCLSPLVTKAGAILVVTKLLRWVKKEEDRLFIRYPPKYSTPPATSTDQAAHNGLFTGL
UniProt Q66LE6: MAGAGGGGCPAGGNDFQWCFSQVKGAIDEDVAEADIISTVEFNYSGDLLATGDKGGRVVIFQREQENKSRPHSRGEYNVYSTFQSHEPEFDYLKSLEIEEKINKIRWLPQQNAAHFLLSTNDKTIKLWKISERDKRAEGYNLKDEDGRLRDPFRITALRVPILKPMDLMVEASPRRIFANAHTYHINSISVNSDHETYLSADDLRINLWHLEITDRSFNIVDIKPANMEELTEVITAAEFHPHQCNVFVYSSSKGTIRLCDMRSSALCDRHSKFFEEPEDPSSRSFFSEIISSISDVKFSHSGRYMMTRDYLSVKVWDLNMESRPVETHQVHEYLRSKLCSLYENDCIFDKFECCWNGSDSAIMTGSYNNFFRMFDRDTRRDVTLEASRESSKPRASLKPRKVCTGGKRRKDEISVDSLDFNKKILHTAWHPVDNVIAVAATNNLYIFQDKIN
UniProt Q69YN2: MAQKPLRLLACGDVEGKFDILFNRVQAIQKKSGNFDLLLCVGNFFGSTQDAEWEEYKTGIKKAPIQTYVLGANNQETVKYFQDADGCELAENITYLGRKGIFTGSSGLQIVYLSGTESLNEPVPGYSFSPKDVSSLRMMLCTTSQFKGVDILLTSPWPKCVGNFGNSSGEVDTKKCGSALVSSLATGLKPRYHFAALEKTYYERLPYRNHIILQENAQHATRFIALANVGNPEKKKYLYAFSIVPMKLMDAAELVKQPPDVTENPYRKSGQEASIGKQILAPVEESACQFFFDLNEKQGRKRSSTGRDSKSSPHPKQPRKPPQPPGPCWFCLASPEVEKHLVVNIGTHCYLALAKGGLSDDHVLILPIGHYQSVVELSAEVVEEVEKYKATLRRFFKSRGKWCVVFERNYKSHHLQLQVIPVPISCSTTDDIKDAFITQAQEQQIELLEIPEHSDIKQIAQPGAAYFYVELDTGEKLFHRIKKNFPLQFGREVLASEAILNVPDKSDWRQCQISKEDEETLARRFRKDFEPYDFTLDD
UniProt Q7Z3K6: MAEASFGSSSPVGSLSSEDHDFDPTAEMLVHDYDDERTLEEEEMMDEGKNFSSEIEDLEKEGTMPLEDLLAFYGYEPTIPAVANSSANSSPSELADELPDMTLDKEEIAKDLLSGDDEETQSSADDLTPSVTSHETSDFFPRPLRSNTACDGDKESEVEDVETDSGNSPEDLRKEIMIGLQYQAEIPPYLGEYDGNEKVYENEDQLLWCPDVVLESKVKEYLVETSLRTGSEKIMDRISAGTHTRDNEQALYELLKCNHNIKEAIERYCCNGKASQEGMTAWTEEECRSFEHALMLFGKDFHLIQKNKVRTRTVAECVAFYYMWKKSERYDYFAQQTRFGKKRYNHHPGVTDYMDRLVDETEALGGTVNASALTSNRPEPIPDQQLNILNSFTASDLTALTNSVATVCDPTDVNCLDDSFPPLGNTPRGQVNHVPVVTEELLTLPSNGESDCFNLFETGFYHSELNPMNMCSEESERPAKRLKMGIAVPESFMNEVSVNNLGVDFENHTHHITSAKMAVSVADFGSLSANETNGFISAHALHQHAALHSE

Target	NP40-soluble protein abundance (concentration: 1mM)	NP40-soluble protein abundance (concentration: 2mM)	NP40-soluble protein abundance (concentration: 4mM)	NP40-soluble protein abundance (concentration: 6mM)	NP40-soluble protein abundance (concentration: 8mM)	NP40-soluble protein abundance (concentration: 10mM)
FASTKD5 (UniProt Q7L8L6)	0.979 ± 0.032	0.966 ± 0.027	0.968 ± 0.031	0.951 ± 0.015	0.946 ± 0.018	0.966 ± 0.047
UniProt Q5VW36 and related entries	0.955 ± 0.016	0.915 ± 0.049	0.957 ± 0.03	0.935 ± 0.03	0.952 ± 0.025	0.936 ± 0.035
UniProt Q641Q2 and related entries	1.06 ± 0.034	1.1 ± 0.08	1.03 ± 0.014	1.03 ± 0.049	0.988 ± 0.053	1.04 ± 0.05
UniProt Q7L1Q6	0.984 ± 0.042	1.01 ± 0.033	0.969 ± 0.05	1.01 ± 0.048	0.987 ± 0.04	0.998 ± 0.053
LIN54 (UniProt Q6MZP7)	1.03 ± 0.036	1.09 ± 0.019	1.08 ± 0.038	1.06 ± 0.051	1.06 ± 0.043	1.11 ± 0.038
SMYD5 (UniProt Q6GMV2)	0.937 ± 0.035	0.929 ± 0.014	0.97 ± 0.048	1.06 ± 0.097	1.08 ± 0.086	1.08 ± 0.073
UniProt Q7L0J3 and related entries	1 ± 0.032	1.05 ± 0.072	1.03 ± 0.031	1.02 ± 0.025	1.03 ± 0.033	1.02 ± 0.028
ERAP2 (UniProt Q6P179)	0.976 ± 0.03	1.01 ± 0.11	1.04 ± 0.08	1.12 ± 0.1	1.09 ± 0.07	1.14 ± 0.088
UniProt Q6P3S1 and related entries	1.014 ± 0.0082	1 ± 0.016	0.9726 ± 0.0053	0.991 ± 0.0054	0.9776 ± 0.00099	0.982 ± 0.02
UniProt Q6NUQ4 and related entries	1.02 ± 0.029	1.1 ± 0.079	1.06 ± 0.036	1.11 ± 0.014	1.1 ± 0.029	1.16 ± 0.022
UniProt Q6N069	0.868 ± 0.046	0.811 ± 0.063	0.94 ± 0.042	0.966 ± 0.067	1.02 ± 0.066	0.902 ± 0.06
UniProt Q6ZNW5	0.975 ± 0.032	0.932 ± 0.011	0.986 ± 0.025	1.02 ± 0.049	1.01 ± 0.06	1.01 ± 0.058
UniProt Q68E01 and related entries	0.994 ± 0.036	1.016 ± 0.01	1.04 ± 0.073	1.02 ± 0.058	1.05 ± 0.076	1.05 ± 0.11
UniProt Q7L5D6	0.983 ± 0.066	0.874 ± 0.065	1 ± 0.046	0.996 ± 0.058	1.04 ± 0.079	1.05 ± 0.038
UniProt Q6P9B6	1.03 ± 0.064	1.03 ± 0.094	1.01 ± 0.071	0.991 ± 0.035	1.01 ± 0.054	1.01 ± 0.075
UniProt Q7RTV0	1.06 ± 0.071	1.1 ± 0.081	1.06 ± 0.048	1.16 ± 0.045	1.15 ± 0.051	1.19 ± 0.13
UniProt Q6PJW8	0.994 ± 0.014	1.02 ± 0.047	1 ± 0.023	0.977 ± 0.019	0.976 ± 0.015	0.983 ± 0.064
RNF20 (UniProt Q5VTR2)	1.03 ± 0.011	1.06 ± 0.034	1.03 ± 0.017	1 ± 0.037	0.969 ± 0.015	0.994 ± 0.031
UniProt Q7L4I2 and related entries	1 ± 0.031	1.04 ± 0.11	0.977 ± 0.061	0.96 ± 0.04	0.932 ± 0.05	0.984 ± 0.049
UniProt Q7Z3C6 and related entries	0.978 ± 0.018	0.991 ± 0.04	0.996 ± 0.034	0.987 ± 0.033	0.982 ± 0.027	0.988 ± 0.03

Target	NP40-soluble protein abundance (concentration: 1mM)	NP40-soluble protein abundance (concentration: 2mM)	NP40-soluble protein abundance (concentration: 4mM)	NP40-soluble protein abundance (concentration: 6mM)	NP40-soluble protein abundance (concentration: 8mM)	NP40-soluble protein abundance (concentration: 10mM)
UniProt Q6P4E1-2|Q6P4E1-4|Q6P4E1-5|Q6P4E1	0.968 ± 0.029	1.03 ± 0.078	0.976 ± 0.017	0.944 ± 0.036	0.925 ± 0.049	0.917 ± 0.031
UniProt Q6XQN6 and related entries	0.994 ± 0.02	1.01 ± 0.012	1.01 ± 0.018	0.966 ± 0.033	0.954 ± 0.045	0.969 ± 0.021
UniProt Q7Z6B0 and related entries	1.03 ± 0.02	1.1 ± 0.088	1.04 ± 0.048	1.004 ± 0.0086	0.97 ± 0.044	0.994 ± 0.04
GLT8D1 (UniProt Q68CQ7)	1.01 ± 0.031	1.03 ± 0.022	1.03 ± 0.087	1.06 ± 0.018	1.05 ± 0.055	1.08 ± 0.11
NAIF1 (UniProt Q69YI7)	1.01 ± 0.012	1.04 ± 0.071	0.982 ± 0.033	0.951 ± 0.02	0.931 ± 0.021	0.946 ± 0.056
UniProt Q6STE5 and related entries	0.994 ± 0.051	0.986 ± 0.031	0.99 ± 0.048	0.982 ± 0.013	0.999 ± 0.019	0.993 ± 0.027
MED13L (UniProt Q71F56)	1.02 ± 0.033	1.03 ± 0.015	1.01 ± 0.03	1.01 ± 0.072	1.01 ± 0.038	1.04 ± 0.081
INTS5 (UniProt Q6P9B9)	0.989 ± 0.021	0.971 ± 0.024	1.05 ± 0.078	1.1 ± 0.032	1.13 ± 0.044	1.11 ± 0.064
LYPLAL1 (UniProt Q5VWZ2)	0.967 ± 0.026	0.932 ± 0.062	1.02 ± 0.023	0.973 ± 0.03	1.03 ± 0.028	1 ± 0.025
UniProt Q6P3S6 and related entries	1.02 ± 0.018	1.1 ± 0.091	1.04 ± 0.036	1.02 ± 0.018	1.0352 ± 0.00026	1.08 ± 0.034
CYFIP1 (UniProt Q7L576)	0.969 ± 0.041	0.874 ± 0.072	0.973 ± 0.025	0.946 ± 0.039	1.02 ± 0.069	0.946 ± 0.081
TTC37 (UniProt Q6PGP7)	0.822 ± 0.084	0.793 ± 0.14	0.791 ± 0.11	0.768 ± 0.077	0.761 ± 0.078	0.76 ± 0.079
UniProt Q6ZMG9 and related entries	0.986 ± 0.04	0.978 ± 0.058	1.02 ± 0.032	1.03 ± 0.11	1.03 ± 0.098	1.06 ± 0.07
UniProt Q5VVQ6 and related entries	0.976 ± 0.028	0.947 ± 0.032	1.02 ± 0.013	0.977 ± 0.013	0.993 ± 0.016	0.967 ± 0.032
PMF1 (UniProt Q6P1K2)	0.963 ± 0.037	0.981 ± 0.06	0.938 ± 0.047	0.941 ± 0.018	0.933 ± 0.02	0.931 ± 0.059
UniProt Q6P2H3 and related entries	1.01 ± 0.035	1.04 ± 0.061	0.9772 ± 0.0087	0.943 ± 0.026	0.901 ± 0.017	0.942 ± 0.031
HSDL2 (UniProt Q6YN16)	0.998 ± 0.019	1.02 ± 0.029	1.016 ± 0.0087	1.019 ± 0.0086	1 ± 0.035	1.05 ± 0.013
UniProt Q6PJG6	0.987 ± 0.047	1 ± 0.037	0.977 ± 0.053	0.954 ± 0.052	0.924 ± 0.065	0.938 ± 0.091
NXN (UniProt Q6DKJ4)	0.99 ± 0.063	0.969 ± 0.042	0.978 ± 0.019	0.978 ± 0.046	1.03 ± 0.058	0.994 ± 0.025
UniProt Q6ICB0	0.984 ± 0.017	0.991 ± 0.043	0.954 ± 0.037	0.993 ± 0.012	0.969 ± 0.014	0.979 ± 0.044

Laid out differently: entries from further up.
UniProt Q68E01 and related entries
  NP40-soluble protein abundance (concentration: 1mM): 0.994 ± 0.036; NP40-soluble protein abundance (concentration: 2mM): 1.016 ± 0.01; NP40-soluble protein abundance (concentration: 4mM): 1.04 ± 0.073; NP40-soluble protein abundance (concentration: 6mM): 1.02 ± 0.058; NP40-soluble protein abundance (concentration: 8mM): 1.05 ± 0.076; NP40-soluble protein abundance (concentration: 10mM): 1.05 ± 0.11
UniProt Q6P3S6 and related entries
  NP40-soluble protein abundance (concentration: 1mM): 1.02 ± 0.018; NP40-soluble protein abundance (concentration: 2mM): 1.1 ± 0.091; NP40-soluble protein abundance (concentration: 4mM): 1.04 ± 0.036; NP40-soluble protein abundance (concentration: 6mM): 1.02 ± 0.018; NP40-soluble protein abundance (concentration: 8mM): 1.0352 ± 0.00026; NP40-soluble protein abundance (concentration: 10mM): 1.08 ± 0.034

(further entries)

Target	NP40-soluble protein abundance (concentration: 1mM)	NP40-soluble protein abundance (concentration: 2mM)	NP40-soluble protein abundance (concentration: 4mM)	NP40-soluble protein abundance (concentration: 6mM)	NP40-soluble protein abundance (concentration: 8mM)	NP40-soluble protein abundance (concentration: 10mM)
Q5VY60 and related entries (UniProt Q7Z4H7)	1.04 ± 0.011	1.02 ± 0.055	1.01 ± 0.028	1.02 ± 0.032	1.02 ± 0.034	1.02 ± 0.027
UniProt Q7Z3B4 and related entries	0.969 ± 0.054	0.9436 ± 0.0042	1 ± 0.064	1.07 ± 0.067	1.13 ± 0.078	1.09 ± 0.11
UniProt Q6P1N0 and related entries	0.987 ± 0.014	1.01 ± 0.023	1.009 ± 0.0031	1.01 ± 0.014	1.01 ± 0.015	1.02 ± 0.028
UniProt Q6P2C8 and related entries	0.979 ± 0.028	0.943 ± 0.013	1 ± 0.094	1.05 ± 0.052	1.04 ± 0.067	1.07 ± 0.088
FAM91A1 (UniProt Q658Y4)	0.958 ± 0.033	0.915 ± 0.068	0.961 ± 0.031	0.99 ± 0.041	1.01 ± 0.034	0.975 ± 0.054
TMEM65 (UniProt Q6PI78)	0.958 ± 0.054	1.02 ± 0.093	0.976 ± 0.057	0.99 ± 0.028	0.9858 ± 0.0075	0.947 ± 0.047
UniProt Q7Z591 and related entries	0.9959 ± 0.0074	1 ± 0.012	0.9898 ± 0.0073	0.9748 ± 0.0074	0.975 ± 0.024	0.978 ± 0.03
UniProt Q5VZL5 and related entries	1.05 ± 0.023	1.1 ± 0.026	1.1 ± 0.017	1.17 ± 0.089	1.17 ± 0.1	1.24 ± 0.12
UniProt Q7Z3J2 and related entries	0.9593 ± 0.0078	0.944 ± 0.023	0.974 ± 0.026	0.9327 ± 0.0059	0.935 ± 0.031	0.958 ± 0.053
UniProt Q6P087 and related entries	1 ± 0.039	1.02 ± 0.019	1.02 ± 0.057	1.06 ± 0.03	1.08 ± 0.025	1.07 ± 0.057
UniProt Q7Z5J4 and related entries	1.06 ± 0.027	1.14 ± 0.064	1.14 ± 0.021	1.16 ± 0.091	1.2 ± 0.086	1.28 ± 0.097
UniProt Q6IA86 and related entries	0.947 ± 0.047	0.879 ± 0.1	0.963 ± 0.043	0.942 ± 0.035	0.996 ± 0.042	0.931 ± 0.051
ERICH5 (UniProt Q6P6B1)	0.999 ± 0.02	1.08 ± 0.1	1 ± 0.02	0.987 ± 0.032	0.963 ± 0.056	0.989 ± 0.044
MRPL14 (UniProt Q6P1L8)	0.952 ± 0.043	0.988 ± 0.043	0.991 ± 0.037	1.04 ± 0.03	1.04 ± 0.038	1.04 ± 0.035
MON1B (UniProt Q7L1V2)	1.01 ± 0.013	0.934 ± 0.064	0.996 ± 0.04	1.03 ± 0.05	1.03 ± 0.025	1.024 ± 0.0073
PPP2R2D (UniProt Q66LE6)	0.965 ± 0.018	0.934 ± 0.031	0.978 ± 0.041	0.9524 ± 0.0035	0.949 ± 0.024	0.921 ± 0.012
CWF19L1 (UniProt Q69YN2)	0.9932 ± 0.0026	0.959 ± 0.054	1.004 ± 0.0053	1.02 ± 0.022	1.02 ± 0.028	1.01 ± 0.017
ADNP2 (UniProt Q6IQ32)	1 ± 0.043	1.03 ± 0.02	1.06 ± 0.035	1.04 ± 0.053	1.03 ± 0.029	1.05 ± 0.058
UniProt Q7Z3K6 and related entries	1.01 ± 0.025	1.03 ± 0.041	1.04 ± 0.048	0.987 ± 0.032	0.976 ± 0.061	1 ± 0.048
UniProt Q6P996 and related entries	1 ± 0.012	0.9997 ± 0.0084	0.98 ± 0.028	0.946 ± 0.036	0.939 ± 0.032	0.932 ± 0.022

— the supplement of paper PMC6411743
